Data on one compound can be found in patent US20210228734A1, “CONJUGATES COMPRISING A TEMPERATURE-RESPONSIVE POLYMER AND A LIGAND CAPABLE OF BINDING ERGOSTEROL” (L V PRASAD EYE INSTITUTE, priority 2018, published 2021).

Converted amounts (≈) assume the structure as drawn.

One assay relates to C. albicans ATCC90028. The assay is described as follows: Minimal inhibitory concentration (MIC), C. albicans ATCC90028. The conditions noted are these: Candida albicans; C. albicans ATCC90028, 16 hours, no visible growth; Table 3a; read-out: MIC against ATCC90028. The assay is classed as cell-based. On the procedure: (§1) C. albicans cells, laboratory strain SC5314 or ATCC90028, were cultured on solid BHI (Oxoid) medium at 37° C. for 24 hours and stored at 4° C. for up to one month. Prior to experiments, a colony of C. albicans was sub-cultured into liquid BHI medium overnight at 37° C.
(§2) C. albicans cells, laboratory strain SC5314 or ATCC90028, were cultured on solid BHI (Oxoid) medium at 37° C. for 24 hours and stored at 4° C. for up to one month. Prior to experiments, a colony of C. albicans was sub-cultured into liquid BHI medium overnight at 37° C. Overnight cultures of C. albicans were adjusted to an optical density at 600 nm of 0.1 and incubated with Amphotericin polymers, which were serially diluted 1:2 from 2500-2.44 μg/ml, for 16 hours in a 96 well plate. The concentration of polymer at which there was no visible growth was determined to be the MIC. C. albicans (Robin) ATCC200955, C. tropicalis ATCC200956, A. flavus ATCC16883 and F. keratoplasticum ATCC36031 were similarly cultured on solid Sabrauds (Oxoid) medium at 37° C. for 24 hours and stored at 4° C. for up to one month. Prior to experiments, colonies were sub-cultured into liquid Sabrauds medium overnight at 37° C. All liquid cultures were static apart from A. flavus which was incubated shaking at 100 rpm.

For the next assay, the system named is C. albicans SC5314. In words: Minimal inhibitory concentration (MIC), C. albicans SC5314. The assay is classed as cell-based. The conditions noted are these: Candida albicans; C. albicans SC5314, 16 hours, no visible growth; Table 3a; read-out: MIC against SC5314. As to the method: as §1, §2

By MIC is commonly meant the lowest concentration found to suppress growth. In the case of `C[C@@H]1[C@H](O)[C@@H](C)/C=C/C=C/C=C/C=C/C=C/C=C/C=C/[C@H](O[C@@H]2O[C@H](C)[C@@H](O)[C@H](N)[C@@H]2O)C[C@@H]2O[C@](O)(C[C@@H](O)C[C@@H](O)[C@H](O)CC[C@@H](O)C[C@@H](O)CC(=O)O[C@H]1C)C[C@H](O)[C@H]2C(=O)O` [Amp-B, amphotericin B], the MIC is 4 µg/mL (≈ 4.33 µM) in the assay with C. albicans ATCC90028 and 0.4 µg/mL (≈ 0.433 µM) in the assay on C. albicans SC5314.
